Results are given in words; binding and its absence hold for the method and conditions named. Binding seen in cells or lysates may run through a third protein. Some results given as binding are weak or reduced against the parent protein; the word gives no strength. Tags and fused reporters may be left off the sequences shown.
T1: GFP-CPSF73-I (cleavage and polyadenylation specificity factor 73 kDa-I), in transgenic Arabidopsis (Arabidopsis) (UniProt Q9C952)
T1 sequence: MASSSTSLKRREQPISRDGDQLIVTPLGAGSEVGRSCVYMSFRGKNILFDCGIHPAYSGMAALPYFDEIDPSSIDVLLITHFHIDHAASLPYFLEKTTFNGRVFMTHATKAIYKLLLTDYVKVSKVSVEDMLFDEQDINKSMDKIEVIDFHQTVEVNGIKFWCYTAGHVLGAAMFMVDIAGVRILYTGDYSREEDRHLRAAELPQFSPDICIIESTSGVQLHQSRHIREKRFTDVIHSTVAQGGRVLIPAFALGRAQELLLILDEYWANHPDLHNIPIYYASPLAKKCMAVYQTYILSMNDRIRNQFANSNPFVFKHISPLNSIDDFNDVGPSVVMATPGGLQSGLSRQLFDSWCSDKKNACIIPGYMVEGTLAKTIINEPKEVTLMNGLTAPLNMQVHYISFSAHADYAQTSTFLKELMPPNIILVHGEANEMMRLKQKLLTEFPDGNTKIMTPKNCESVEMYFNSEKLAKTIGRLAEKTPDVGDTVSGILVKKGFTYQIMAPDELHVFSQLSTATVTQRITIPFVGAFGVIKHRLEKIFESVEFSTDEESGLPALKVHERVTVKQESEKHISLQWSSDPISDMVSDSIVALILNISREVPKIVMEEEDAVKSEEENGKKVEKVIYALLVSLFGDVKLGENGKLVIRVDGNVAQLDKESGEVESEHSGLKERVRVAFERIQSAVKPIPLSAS

The chains behind the UniProt entries cited, without tags or fusion partners.
UniProt P38420: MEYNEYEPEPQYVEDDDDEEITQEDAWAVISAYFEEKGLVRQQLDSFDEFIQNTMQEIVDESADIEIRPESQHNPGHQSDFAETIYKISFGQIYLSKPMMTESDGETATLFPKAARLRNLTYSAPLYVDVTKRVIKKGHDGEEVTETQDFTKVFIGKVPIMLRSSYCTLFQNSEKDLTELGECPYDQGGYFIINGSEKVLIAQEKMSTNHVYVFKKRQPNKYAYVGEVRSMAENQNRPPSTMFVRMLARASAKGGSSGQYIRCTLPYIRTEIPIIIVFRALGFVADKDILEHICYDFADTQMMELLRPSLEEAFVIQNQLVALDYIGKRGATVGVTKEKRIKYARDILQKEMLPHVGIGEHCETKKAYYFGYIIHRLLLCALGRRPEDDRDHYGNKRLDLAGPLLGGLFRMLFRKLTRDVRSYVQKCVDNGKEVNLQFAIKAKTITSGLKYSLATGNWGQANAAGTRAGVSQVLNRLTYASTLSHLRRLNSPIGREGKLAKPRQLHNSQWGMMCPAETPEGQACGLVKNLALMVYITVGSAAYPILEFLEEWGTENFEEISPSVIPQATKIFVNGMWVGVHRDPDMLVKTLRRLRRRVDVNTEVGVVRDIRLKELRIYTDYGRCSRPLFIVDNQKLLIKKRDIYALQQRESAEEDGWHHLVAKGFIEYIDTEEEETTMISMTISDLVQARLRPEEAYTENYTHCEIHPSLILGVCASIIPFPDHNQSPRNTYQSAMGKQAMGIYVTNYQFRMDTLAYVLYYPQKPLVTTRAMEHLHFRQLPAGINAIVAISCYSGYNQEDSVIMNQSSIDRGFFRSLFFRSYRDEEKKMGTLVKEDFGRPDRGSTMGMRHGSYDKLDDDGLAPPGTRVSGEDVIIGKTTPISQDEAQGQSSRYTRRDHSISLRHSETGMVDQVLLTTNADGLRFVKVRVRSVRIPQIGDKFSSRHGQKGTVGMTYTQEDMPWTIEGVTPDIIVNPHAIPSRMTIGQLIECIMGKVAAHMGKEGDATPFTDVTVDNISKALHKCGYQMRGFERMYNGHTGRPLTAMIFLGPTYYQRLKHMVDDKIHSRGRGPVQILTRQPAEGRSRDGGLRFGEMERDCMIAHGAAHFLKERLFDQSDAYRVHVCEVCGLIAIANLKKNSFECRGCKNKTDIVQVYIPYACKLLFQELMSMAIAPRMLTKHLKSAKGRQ

T2: GFP-CPSF73-I, expressed in N. benthamiana (Arabidopsis) (UniProt Q9C952)
T2 sequence: T1 sequence

B1: DSP3-MYC, in vitro translated (protein, UniProt Q8VZA0 1-936)
chain: MTSSMEEDDSISPESISLDTLASIRSLIINADTSDSVISSVFDFLTGLLSRGNSAILHHVLKLLSDLAFRRKELAPQIFDSILSNLLRLHNTVAEASHERAAVESLAVLASLSERTPSIAAALSKIDDEVFASICLGAPISSRLWLLRNADRFNVPSSVLFTLFLGFSKDPYPYIRKVALDGLINICNAGDFNHTHAVEGCYTRAVELLSDAEDSVRSSAVRAVSVWGKVMIASKEEEMNRRDCTDAVFLQLCSVVRDMSVDVRVEVFKAFGIIGTASESIILQTLSKKVLGAGKGKKPQNLLSNGSADVSSAAGVYIHGFEDEFYEVREAAVDSFHSLSVNSIKFPDEAVYLLMDMLYDDYMVVRLKALKALHHIADLGNLKIQETYMPAFLDAIVDTSENIRVEARNILKLAKLPDLKLVNKCIDGVLKSLEMYPQDEPDILSALFHFGQNHTNFLVSMVKRFSEKLGTASGSKAEFNSRQLSASLTLIISAPLSNKQSITSIPPLAFSYSLAMLGKFSSGLHDMMDQDMLLAYLTHCAILSSSSGTEFNKGDVFFHAYRDSNADLAGNPVLLPGKDIPAESKYMACKAELEIGNQALKFVNHILLKIKAAWLLSQSGCSKEALRALRACKQELATLTADSSISKGTLDFICQYVHVIELLVQVWPHFNYSRHISTCSSVEVELLMEEVEIKLMEIRCRFTGLSTEESLVLELVIFGCLLRLYKFEICCRLSCMEKLSSTISQLELHHEQQCTKPSDFLTETKKSLEEFGSSDDINSCRLLDLIKIFKCFSPEQFTFSVNLQCVSAEVEVPGNGPYSPISFVPGLPVAIPCEITLLNVPRDTCLWLRISRNDETCQFVYLDPNLYNGNGREKRFMFTAVTYMTPRAVVFTLRVSIGIECLFEDICYRKQRHGPKHPVAYLCKEREIHLSLVSRT

Assays:
[1] = target: T1, GFP-CPSF73-I (cleavage and polyadenylation specificity factor 73 kDa-I), in transgenic Arabidopsis (Arabidopsis); test: co-IP; IP from Arabidopsis harboring 35S::GFP-CPSF73-I or GFP-DSP4, Pol II looked for by western blot (the methods name N. benthamiana for GFP-CPSF73-I)
[2] = target: T2, GFP-CPSF73-I, expressed in N. benthamiana (Arabidopsis); test: co-IP; in vitro translated DSP3-MYC added to N. benthamiana protein extracts containing GFP-tagged proteins or GFP; western blot (paper: Co-IP/pull down)

binding [1] | binding [2] | Molecule
no binding | – | RPB2 (the second-largest subunit of Pol II) (from UniProt P38420 1-1188)
– | binds | B1
